Laboratory results as given in PMC9054013, “FCHO controls AP2’s initiating role in endocytosis through a PtdIns(4,5)P2-dependent switch” (Science Advances, 2022).
No constants are given. Whether binding was seen depends on the method and setting.

By UniProt entry, the sequences of proteins in these tests, tags left out. Residues count along the entry.
UniProt P17427, residues 695-938: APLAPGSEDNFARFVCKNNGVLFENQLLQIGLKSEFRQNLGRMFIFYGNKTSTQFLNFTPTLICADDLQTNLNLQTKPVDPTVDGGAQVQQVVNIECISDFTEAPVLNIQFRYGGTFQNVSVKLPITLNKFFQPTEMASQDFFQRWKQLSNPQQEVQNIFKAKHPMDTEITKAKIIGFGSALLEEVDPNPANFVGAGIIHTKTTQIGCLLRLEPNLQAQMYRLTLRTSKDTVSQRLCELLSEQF

Target: AP2 α-appendage (residues 695 to 938) (UniProt P17427)
Experiment: ITC; α-appendage or β2-appendage with C block peptides; 100 mM tris pH 7.4, 150 mM NaCl, 0.25 mM TCEP; 12°C; peptides 1 to 5 mM titrated; both purified

QSEEQVSKNLFGPPAAAAFDHED (peptide, UniProt O14526 426-448) [FCHO1 C peptide, LES to AAA]
binding: no binding (tested: weaker than 500 μM KD)
